In the supplement of paper PMC11438910:
The list shows a part of the results. Most of these values are background signal.

Experiments:
Assay in all cases: fluorescence intensity of antibody binding to polysaccharide-coupled beads; higher = stronger binding
[1] = biological target: pneumococcal polysaccharide Pn10A
[2] = biological target: pneumococcal polysaccharide Pn10B
[3] = biological target: pneumococcal polysaccharide Pn10C
[4] = biological target: pneumococcal polysaccharide Pn10F
[5] = biological target: pneumococcal polysaccharide Pn11A
[6] = biological target: pneumococcal polysaccharide Pn11B
[7] = biological target: pneumococcal polysaccharide Pn11C
[8] = biological target: pneumococcal polysaccharide Pn11D
[9] = biological target: pneumococcal polysaccharide Pn11F
[10] = biological target: pneumococcal polysaccharide Pn12A
[11] = biological target: pneumococcal polysaccharide Pn12B
[12] = biological target: pneumococcal polysaccharide Pn12F
[13] = biological target: pneumococcal polysaccharide Pn13
[14] = biological target: pneumococcal polysaccharide Pn14
[15] = biological target: pneumococcal polysaccharide Pn15A
[16] = biological target: pneumococcal polysaccharide Pn15B
[17] = biological target: pneumococcal polysaccharide Pn15C
[18] = biological target: pneumococcal polysaccharide Pn15F
[19] = biological target: pneumococcal polysaccharide Pn16A
[20] = biological target: pneumococcal polysaccharide Pn16F
[21] = biological target: pneumococcal polysaccharide Pn17A
[22] = biological target: pneumococcal polysaccharide Pn17F
[23] = biological target: pneumococcal polysaccharide Pn18A
[24] = biological target: pneumococcal polysaccharide Pn18B
[25] = antibody concentration 2337.65 ng/mL
[26] = antibody concentration 12500 ng/mL
[27] = antibody concentration 0.1 ng/mL
[28] = antibody concentration 0.534724 ng/mL
[29] = antibody concentration 2.8593 ng/mL
[30] = antibody concentration 15.2894 ng/mL
[31] = antibody concentration 81.7561 ng/mL
[32] = antibody concentration 437.17 ng/mL

B1: 4-127.4 (protein)
chain 1: QVQLQESGPGLVKPSETLSLTCGVSGYSISSGHGWSWIRQPPGKGLEWIGYVGGSSGNTNYNPSLKSRVTISKDTSKNQISLKLSSVTAADTAVYYCARRGISGTFGLVDYWGQGVLVTVSS
chain 2: QSVLTQPPSVSGAPGQRVTISCTGSSSNIGGYYVQWYQQLPGSAPKLLIYDNDQRPSGVSDRISGSRSGTSASLTITGLQSEDEADYYCQSFDSFLRGVLFGGGTRLTVL
With B1 the fluorescence intensity [1, 25] was 27.5 MFI, the fluorescence intensity [1, 26] was 34 MFI and the fluorescence intensity [2, 27] was 23.5 MFI. The fluorescence intensity [2, 28] was 25.5 MFI, the fluorescence intensity [2, 29] was 24.8 MFI and the fluorescence intensity [2, 30] was 23.2 MFI. For the same binder, the fluorescence intensity [2, 31] was 23.5 MFI, the fluorescence intensity [2, 32] was 23.8 MFI and the fluorescence intensity [2, 25] was 25 MFI. It also gave a fluorescence intensity [2, 26] of 25 MFI, a fluorescence intensity [3, 27] of 18 MFI and a fluorescence intensity [3, 28] of 15.5 MFI. It also gave a fluorescence intensity [3, 29] of 16 MFI, a fluorescence intensity [3, 30] of 16.5 MFI and a fluorescence intensity [3, 31] of 16 MFI. The fluorescence intensity [3, 32] was 16 MFI, the fluorescence intensity [3, 25] was 17.5 MFI and the fluorescence intensity [3, 26] was 18.5 MFI. For the same binder, the fluorescence intensity [4, 27] was 22.5 MFI, the fluorescence intensity [4, 28] was 18.5 MFI and the fluorescence intensity [4, 29] was 20 MFI. For the same binder, the fluorescence intensity [4, 30] was 20 MFI, the fluorescence intensity [4, 31] was 20 MFI and the fluorescence intensity [4, 32] was 20.5 MFI. It also gave a fluorescence intensity [4, 25] of 20.2 MFI, a fluorescence intensity [4, 26] of 23.5 MFI and a fluorescence intensity [5, 27] of 27.8 MFI. The fluorescence intensity [5, 28] was 29 MFI, the fluorescence intensity [5, 29] was 30 MFI and the fluorescence intensity [5, 30] was 28.8 MFI. The fluorescence intensity [5, 31] was 30 MFI, the fluorescence intensity [5, 32] was 31.2 MFI and the fluorescence intensity [5, 25] was 35.8 MFI. It also gave a fluorescence intensity [5, 26] of 45.2 MFI, a fluorescence intensity [6, 27] of 27 MFI and a fluorescence intensity [6, 28] of 27.5 MFI. The fluorescence intensity [6, 29] was 25.8 MFI, the fluorescence intensity [6, 30] was 26.5 MFI and the fluorescence intensity [6, 31] was 25.8 MFI. It also gave a fluorescence intensity [6, 32] of 28.2 MFI, a fluorescence intensity [6, 25] of 31.2 MFI and a fluorescence intensity [6, 26] of 37.5 MFI. The fluorescence intensity [7, 27] was 22.2 MFI, the fluorescence intensity [7, 28] was 22.5 MFI and the fluorescence intensity [7, 29] was 22 MFI. For the same binder, the fluorescence intensity [7, 30] was 22 MFI, the fluorescence intensity [7, 31] was 21.5 MFI and the fluorescence intensity [7, 32] was 21.5 MFI. It also gave a fluorescence intensity [7, 25] of 27.8 MFI, a fluorescence intensity [7, 26] of 60 MFI and a fluorescence intensity [8, 27] of 23.8 MFI. For the same binder, the fluorescence intensity [8, 28] was 23.8 MFI, the fluorescence intensity [8, 29] was 23 MFI and the fluorescence intensity [8, 30] was 22.5 MFI. For the same binder, the fluorescence intensity [8, 31] was 23 MFI, the fluorescence intensity [8, 32] was 23.5 MFI and the fluorescence intensity [8, 25] was 24.2 MFI. It also gave a fluorescence intensity [8, 26] of 41.5 MFI, a fluorescence intensity [9, 27] of 15 MFI and a fluorescence intensity [9, 28] of 14.2 MFI. It also gave a fluorescence intensity [9, 29] of 13.8 MFI, a fluorescence intensity [9, 30] of 13.2 MFI and a fluorescence intensity [9, 31] of 13.2 MFI. It also gave a fluorescence intensity [9, 32] of 14.5 MFI, a fluorescence intensity [9, 25] of 16.5 MFI and a fluorescence intensity [9, 26] of 17.8 MFI. The fluorescence intensity [10, 27] was 16.8 MFI, the fluorescence intensity [10, 28] was 14.8 MFI and the fluorescence intensity [10, 29] was 15 MFI. It also gave a fluorescence intensity [10, 30] of 15.5 MFI, a fluorescence intensity [10, 31] of 14.5 MFI and a fluorescence intensity [10, 32] of 16 MFI. The fluorescence intensity [10, 25] was 16.5 MFI, the fluorescence intensity [10, 26] was 23.5 MFI and the fluorescence intensity [11, 27] was 15.5 MFI. It also gave a fluorescence intensity [11, 28] of 16 MFI, a fluorescence intensity [11, 29] of 15.8 MFI and a fluorescence intensity [11, 30] of 16.2 MFI. The fluorescence intensity [11, 31] was 16 MFI, the fluorescence intensity [11, 32] was 15.5 MFI and the fluorescence intensity [11, 25] was 16.5 MFI. For the same binder, the fluorescence intensity [11, 26] was 25.5 MFI, the fluorescence intensity [12, 27] was 18.2 MFI and the fluorescence intensity [12, 28] was 18.5 MFI. It also gave a fluorescence intensity [12, 29] of 17 MFI, a fluorescence intensity [12, 30] of 19 MFI and a fluorescence intensity [12, 31] of 19 MFI. The fluorescence intensity [12, 32] was 19.5 MFI, the fluorescence intensity [12, 25] was 20.5 MFI and the fluorescence intensity [12, 26] was 32.5 MFI. The fluorescence intensity [13, 27] was 20.5 MFI, the fluorescence intensity [13, 28] was 19 MFI and the fluorescence intensity [13, 29] was 19 MFI. The fluorescence intensity [13, 30] was 18.5 MFI, the fluorescence intensity [13, 31] was 18.8 MFI and the fluorescence intensity [13, 32] was 19 MFI. For the same binder, the fluorescence intensity [13, 25] was 20 MFI, the fluorescence intensity [13, 26] was 24.5 MFI and the fluorescence intensity [14, 27] was 14 MFI. The fluorescence intensity [14, 28] was 14.5 MFI, the fluorescence intensity [14, 29] was 13.8 MFI and the fluorescence intensity [14, 30] was 15 MFI. It also gave a fluorescence intensity [14, 31] of 14 MFI, a fluorescence intensity [14, 32] of 16.5 MFI and a fluorescence intensity [14, 25] of 20.5 MFI. It also gave a fluorescence intensity [14, 26] of 59.8 MFI, a fluorescence intensity [15, 27] of 14 MFI and a fluorescence intensity [15, 28] of 12.5 MFI. It also gave a fluorescence intensity [15, 29] of 12.5 MFI, a fluorescence intensity [15, 30] of 12.2 MFI and a fluorescence intensity [15, 31] of 13 MFI. The fluorescence intensity [15, 32] was 13.5 MFI, the fluorescence intensity [15, 25] was 13 MFI and the fluorescence intensity [15, 26] was 14 MFI. It also gave a fluorescence intensity [16, 27] of 17.5 MFI, a fluorescence intensity [16, 28] of 19 MFI and a fluorescence intensity [16, 29] of 18 MFI. It also gave a fluorescence intensity [16, 30] of 18.5 MFI, a fluorescence intensity [16, 31] of 18.5 MFI and a fluorescence intensity [16, 32] of 22.5 MFI. For the same binder, the fluorescence intensity [16, 25] was 22.8 MFI, the fluorescence intensity [16, 26] was 29 MFI and the fluorescence intensity [17, 27] was 14.5 MFI. It also gave a fluorescence intensity [17, 28] of 15.2 MFI, a fluorescence intensity [17, 29] of 17 MFI and a fluorescence intensity [17, 30] of 16.5 MFI. For the same binder, the fluorescence intensity [17, 31] was 16.5 MFI, the fluorescence intensity [17, 32] was 16.8 MFI and the fluorescence intensity [17, 25] was 18.8 MFI. For the same binder, the fluorescence intensity [17, 26] was 20.8 MFI, the fluorescence intensity [18, 27] was 17.8 MFI and the fluorescence intensity [18, 28] was 18 MFI. The fluorescence intensity [18, 29] was 17.5 MFI, the fluorescence intensity [18, 30] was 16.2 MFI and the fluorescence intensity [18, 31] was 18 MFI. For the same binder, the fluorescence intensity [18, 32] was 16.5 MFI, the fluorescence intensity [18, 25] was 19.2 MFI and the fluorescence intensity [18, 26] was 23 MFI. For the same binder, the fluorescence intensity [19, 27] was 16.8 MFI, the fluorescence intensity [19, 28] was 14 MFI and the fluorescence intensity [19, 29] was 15.5 MFI. For the same binder, the fluorescence intensity [19, 30] was 12.5 MFI, the fluorescence intensity [19, 31] was 14.5 MFI and the fluorescence intensity [19, 32] was 14 MFI. The fluorescence intensity [19, 25] was 14 MFI, the fluorescence intensity [19, 26] was 18.5 MFI and the fluorescence intensity [20, 27] was 25.8 MFI. The fluorescence intensity [20, 28] was 23.5 MFI, the fluorescence intensity [20, 29] was 25 MFI and the fluorescence intensity [20, 30] was 23.5 MFI. The fluorescence intensity [20, 31] was 25.5 MFI, the fluorescence intensity [20, 32] was 24.8 MFI and the fluorescence intensity [20, 25] was 27.5 MFI. It also gave a fluorescence intensity [20, 26] of 34.5 MFI, a fluorescence intensity [21, 27] of 20.5 MFI and a fluorescence intensity [21, 28] of 19.5 MFI. For the same binder, the fluorescence intensity [21, 29] was 21.5 MFI, the fluorescence intensity [21, 30] was 20 MFI and the fluorescence intensity [21, 31] was 19.5 MFI. For the same binder, the fluorescence intensity [21, 32] was 19.5 MFI, the fluorescence intensity [21, 25] was 21 MFI and the fluorescence intensity [21, 26] was 24.2 MFI. It also gave a fluorescence intensity [22, 27] of 28 MFI, a fluorescence intensity [22, 28] of 26.8 MFI and a fluorescence intensity [22, 29] of 27 MFI. It also gave a fluorescence intensity [22, 30] of 26.5 MFI, a fluorescence intensity [22, 31] of 26.5 MFI and a fluorescence intensity [22, 32] of 26 MFI. It also gave a fluorescence intensity [22, 25] of 27 MFI, a fluorescence intensity [22, 26] of 29.8 MFI and a fluorescence intensity [23, 27] of 23 MFI. The fluorescence intensity [23, 28] was 23.2 MFI, the fluorescence intensity [23, 29] was 24.5 MFI and the fluorescence intensity [23, 30] was 22 MFI. For the same binder, the fluorescence intensity [23, 31] was 23.8 MFI, the fluorescence intensity [23, 32] was 23.5 MFI and the fluorescence intensity [23, 25] was 24.5 MFI. It also gave a fluorescence intensity [23, 26] of 27 MFI, a fluorescence intensity [24, 27] of 32 MFI and a fluorescence intensity [24, 28] of 30.2 MFI.
